Data: publication PMC9303266
No constants are given. Whether binding was seen depends on the method and setting. Binding seen in cells or lysates may run through a third protein. These calls come from enrichment with a bait or labelling near it, and not all partners need be listed. For part of these data: No binding means not detected with the bait.

Chains of the proteins cited; added tags and fusions are not shown. Lines headed by an entry give the natural chain unless they say otherwise; changes in a name come on top.
UniProt O45149: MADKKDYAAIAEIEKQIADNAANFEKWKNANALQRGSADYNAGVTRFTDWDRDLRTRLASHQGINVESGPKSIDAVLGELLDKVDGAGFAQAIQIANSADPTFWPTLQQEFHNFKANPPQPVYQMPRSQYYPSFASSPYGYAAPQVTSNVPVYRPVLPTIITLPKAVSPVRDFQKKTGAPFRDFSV
UniProt Q9GYR5: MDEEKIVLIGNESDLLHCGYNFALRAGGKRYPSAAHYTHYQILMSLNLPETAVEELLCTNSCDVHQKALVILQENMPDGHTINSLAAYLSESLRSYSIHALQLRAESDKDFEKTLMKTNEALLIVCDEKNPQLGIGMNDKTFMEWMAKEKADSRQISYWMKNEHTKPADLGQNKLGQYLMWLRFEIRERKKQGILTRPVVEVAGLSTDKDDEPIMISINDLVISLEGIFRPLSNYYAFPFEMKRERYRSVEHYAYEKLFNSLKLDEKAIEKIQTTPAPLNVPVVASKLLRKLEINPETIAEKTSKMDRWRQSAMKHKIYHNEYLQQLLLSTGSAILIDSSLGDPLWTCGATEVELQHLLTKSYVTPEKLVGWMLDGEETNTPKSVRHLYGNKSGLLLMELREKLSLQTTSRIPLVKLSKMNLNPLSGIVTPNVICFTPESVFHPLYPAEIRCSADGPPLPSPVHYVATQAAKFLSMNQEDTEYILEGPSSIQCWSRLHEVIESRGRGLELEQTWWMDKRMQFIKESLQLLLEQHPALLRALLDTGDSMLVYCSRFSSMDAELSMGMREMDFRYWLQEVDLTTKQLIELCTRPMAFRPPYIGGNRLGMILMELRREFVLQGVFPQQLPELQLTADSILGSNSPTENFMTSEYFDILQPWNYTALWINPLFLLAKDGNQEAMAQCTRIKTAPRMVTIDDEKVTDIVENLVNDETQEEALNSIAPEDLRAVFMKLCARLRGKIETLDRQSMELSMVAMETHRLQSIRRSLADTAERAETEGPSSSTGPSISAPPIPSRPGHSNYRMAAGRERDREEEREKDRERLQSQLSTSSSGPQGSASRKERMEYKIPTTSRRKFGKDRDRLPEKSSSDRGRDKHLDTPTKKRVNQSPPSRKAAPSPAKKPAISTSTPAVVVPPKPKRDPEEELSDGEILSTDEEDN
UniProt P18334: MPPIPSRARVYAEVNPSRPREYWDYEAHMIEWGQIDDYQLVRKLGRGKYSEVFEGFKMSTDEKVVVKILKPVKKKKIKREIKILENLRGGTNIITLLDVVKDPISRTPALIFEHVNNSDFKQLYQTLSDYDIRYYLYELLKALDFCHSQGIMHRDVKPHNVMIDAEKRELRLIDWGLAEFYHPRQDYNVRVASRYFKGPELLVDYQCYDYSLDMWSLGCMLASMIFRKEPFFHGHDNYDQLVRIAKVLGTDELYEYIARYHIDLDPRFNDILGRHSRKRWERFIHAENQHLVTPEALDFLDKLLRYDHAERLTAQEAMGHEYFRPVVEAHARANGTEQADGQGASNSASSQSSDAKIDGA
UniProt Q94050: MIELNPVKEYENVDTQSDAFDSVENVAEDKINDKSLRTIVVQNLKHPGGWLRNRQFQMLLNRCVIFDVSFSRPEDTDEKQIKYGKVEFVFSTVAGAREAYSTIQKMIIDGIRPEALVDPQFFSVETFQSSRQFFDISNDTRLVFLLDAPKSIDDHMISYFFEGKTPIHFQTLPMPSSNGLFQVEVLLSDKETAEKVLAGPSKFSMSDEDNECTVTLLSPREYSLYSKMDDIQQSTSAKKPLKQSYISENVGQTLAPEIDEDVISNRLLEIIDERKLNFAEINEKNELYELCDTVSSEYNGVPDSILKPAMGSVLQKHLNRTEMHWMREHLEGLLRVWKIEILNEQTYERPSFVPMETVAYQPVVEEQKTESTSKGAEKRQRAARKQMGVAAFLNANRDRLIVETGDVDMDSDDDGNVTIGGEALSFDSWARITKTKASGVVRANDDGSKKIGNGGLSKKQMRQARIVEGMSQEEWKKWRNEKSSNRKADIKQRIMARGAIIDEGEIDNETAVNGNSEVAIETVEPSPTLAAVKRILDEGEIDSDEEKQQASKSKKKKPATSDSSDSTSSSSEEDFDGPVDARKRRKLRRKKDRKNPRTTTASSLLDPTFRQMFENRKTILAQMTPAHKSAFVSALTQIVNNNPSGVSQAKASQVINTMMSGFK
UniProt P91918: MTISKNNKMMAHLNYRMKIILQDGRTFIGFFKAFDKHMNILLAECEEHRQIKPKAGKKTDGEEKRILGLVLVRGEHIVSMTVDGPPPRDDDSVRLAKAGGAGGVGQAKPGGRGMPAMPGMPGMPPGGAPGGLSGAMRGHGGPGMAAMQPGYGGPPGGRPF
UniProt Q9U2F5: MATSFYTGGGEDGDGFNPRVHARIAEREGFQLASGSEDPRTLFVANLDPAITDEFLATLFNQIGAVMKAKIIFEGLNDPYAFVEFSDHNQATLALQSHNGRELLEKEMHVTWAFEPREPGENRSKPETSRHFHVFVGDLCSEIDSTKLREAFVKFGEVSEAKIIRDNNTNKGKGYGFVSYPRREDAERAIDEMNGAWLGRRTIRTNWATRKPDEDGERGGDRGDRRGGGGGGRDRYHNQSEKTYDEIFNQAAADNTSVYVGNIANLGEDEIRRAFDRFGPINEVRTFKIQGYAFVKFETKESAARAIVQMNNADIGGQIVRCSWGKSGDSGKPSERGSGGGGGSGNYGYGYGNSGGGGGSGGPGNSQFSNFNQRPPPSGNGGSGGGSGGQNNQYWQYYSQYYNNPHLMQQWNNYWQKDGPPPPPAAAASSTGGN

Key:
[1] = target: GFP::SNA-1 (C. elegans (endogenous in embryo extract)) (UniProt O45149); experiment: affinity purification with mass spectrometry; as a1, but the PE906 embryo extract was pre-treated with 200 units/ml RNase T1 and 5 units/ml RNase A for 1 h at 4°C before the immunoprecipitation
[2] = target: GFP::SNA-1 (C. elegans (endogenous in embryo extract)) (UniProt O45149); experiment: affinity purification with mass spectrometry; GFP::SNA-1 precipitated from PE906 embryo extract with anti-GFP nanobody agarose beads (GFP-Trap) against control agarose beads, triplicates, 1 h at 4°C; label-free LC-MS/MS (MaxQuant, Perseus; FDR < 0.01, S0 2.5); extract not treated with RNase
[3] = target: SNA-3::GFP (C. elegans (endogenous in embryo extract)) (UniProt Q9GYR5); experiment: affinity purification with mass spectrometry; SNA-3::GFP precipitated from PE975 embryo extract with anti-GFP nanobody agarose beads against control agarose beads, triplicates; label-free LC-MS/MS; extract not treated with RNase
[4] = target: SNA-3::GFP (C. elegans (endogenous in embryo extract)) (UniProt Q9GYR5); experiment: condition: only extract pre-treated with RNase A/T1; affinity purification with mass spectrometry; as a3, but the PE975 embryo extract was pre-treated with RNase A/T1 before the immunoprecipitation
[5] = target: GFP::SNA-1 (C. elegans (endogenous in embryo extract)) (UniProt O45149); experiment: condition: only extract pre-treated with RNase A and RNase T1; affinity purification with mass spectrometry; as a1, but the PE906 embryo extract was pre-treated with 200 units/ml RNase T1 and 5 units/ml RNase A for 1 h at 4°C before the immunoprecipitation
[6] = target: SNA-3::GFP (C. elegans (endogenous in embryo extract)) (UniProt Q9GYR5); experiment: affinity purification with mass spectrometry; as a3, but the PE975 embryo extract was pre-treated with RNase A/T1 before the immunoprecipitation
[7] = target: SNA-3::GFP (C. elegans (endogenous in embryo extract)) (UniProt Q9GYR5); experiment: condition: only extract pre-treated with RNase A/T1; affinity purification with mass spectrometry; as a3, but the PE975 embryo extract was pre-treated with RNase A/T1 before the immunoprecipitation; remark: listed apart in the source
[8] = target: SNA-3::GFP (C. elegans (endogenous in embryo extract)) (UniProt Q9GYR5); experiment: affinity purification with mass spectrometry; SNA-3::GFP precipitated from PE975 embryo extract with anti-GFP nanobody agarose beads against control agarose beads, triplicates; label-free LC-MS/MS; extract not treated with RNase; remark: listed apart in the source
[9] = target: GFP::SNA-1 (C. elegans (endogenous in embryo extract)) (UniProt O45149); experiment: affinity purification with mass spectrometry; GFP::SNA-1 precipitated from PE906 embryo extract with anti-GFP nanobody agarose beads (GFP-Trap) against control agarose beads, triplicates, 1 h at 4°C; label-free LC-MS/MS (MaxQuant, Perseus; FDR < 0.01, S0 2.5); extract not treated with RNase; remark: listed apart in the source

| Molecule | binding [1] | binding [2] | binding [3] | binding [7] | binding [8] | binding [9] | other results |
| --- | --- | --- | --- | --- | --- | --- | --- |
| KIN-3 (from UniProt P18334 1-360) (enzyme) | binds | binds |  |  |  |  |  |
| SNA-2 (from UniProt Q94050) | binds | binds | no binding |  |  |  |  |
| SNR-2 (from UniProt P91918 1-160) |  | binds | binds |  |  |  | binding [4]: no binding; binding [5]: no binding |
| TIAR-2 (from UniProt Q9U2F5) |  | no binding | binds |  |  |  | binding [6]: binds |
| NCBP-1 (protein, UniProt O01763 1-798) MSRRRQFDDEDEVQMKRRRGAPLIEDVEKKLQGVIGKVGENTGSSIECNLDKLTAFLHDDLEKYRASIIDIIAGCAIYLPNRVTVYTTLVGLLNSKNFNFGGDVVEKLISEQQDLLSKQKYQEAQNLAIFLCDLGNSGVLTAQSIGEYLESFIAAAFEENMPQVRNDYYIQTVLRCLPWIGKELTEKAPEQMENIGEAIGKYLELRNKNHVALLQVWREGSTDQKQEDYLESLSAQIEALRNADWVENHIPRHYSGFETTLQDALQHNLPSFQSPEHTSDMIYPYPLVVFRLFQDADCSAFSSKPLPGDSSIDRFLFEGEIAWIIEKNQFNRKACARELLAFAEENPSVPIGFLIFETIFGQMLRLPHAPYPAIFHCSLVLELLKLKPDDYPQILVQTVECIYRRADSMQPVCIDRMVDWFSFHLSNFQYRYTWTDWKDCLNKDAFSGSQIFVREVIEKCRRFGSYEKIIAALPQDFVKIHPCSPEVRYLIDEEDTALVQRAETFTQMFQERQPAEAFLNELKSNDENDELPYNINEFGLFVMVMLKMASKTYSHNFSALFRYQTTLKTVCDASELYQEKLLETLYSCWKTNQQMLMILTDKLLKMQVIDCSAVVGWLFDEKMWQEHDRQWLFEVLNQALEKLTRQINVVEKDIKELTEKTENKIKEEDDEESDIKMDEDETKEEKFKQDLEDLENNKEKLERMVTFQKGLFNDFLIAFIEEIKNAATSNTSEMDGSGDTPGTQTPKFMWLRGRFCHVLLAHAETLLKHSSNIADEVFSEGTDPSIIECFNQFQSLRL |  |  |  | no binding | binds | no binding |  |
| E01A2.2 (protein, UniProt Q966L5 1-712) MVDSDDDGDRRRDKFARERRDEDYRRGGGGFNRYDNKRPGGRRDDYQVKRSRGDDADDSFDPVSRSGNGSDLPTESDSIYSGPLQTFKKFLTSQEDDISEEDAIKKYNEYKTEHRKHQLERFFRAHKDEEWFRLKYKPDDAKKLREAHLENVQKRLQVFNELKEQGQFNKFSLDFGDAEAIIRMLDSVVVKLENGTEDELKAVLAQKLEDESLADIKKDENGNGTEQPKEEPEVKQESGATEELEEGAIEDGTEKSSNKVNIHRTCSVFLRNIPPGLTYEELEGLCKKSPGFLRLALTDGIAERKFYRRGWATFKRDINIKEICWALNAHRLRETDLNAIINRDITRRVRTNNGIASHKQVAINDLKLAVKLTVLYDKKIGLFNAADEADADREMDIRMGVDLVAASTNPLIKEVKSLVPHDVLNDISEEEAELLGVSNGGEAPAEKIRFERDDNILKALDLLIVYLRIVHSIDFYNHGHYAQEDSMPNRCGLIHVRGQPPSGVSITTDEDGALVVPQKFVNDFISGFNSRIEKGLIEKQYVSEEELEKMGKKDGEKEVEAFIQKNTVELAKDKWLCPLSGKKFKGPEFIRKHLQSKHEDKLEEARAEADFFNNYLADAQRPVDCEPKQAPRDDHRGGGGGERGGYGRERDDDRGPGGGGRNSFGGGGYDRRPQFPPRHSLGGRGGGGRYFEDAPRRQPVSYRDLDAPDDIP |  |  |  | no binding | binds | no binding |  |
